Test results from patent US10618901B2 (GlaxoSmithKline Intellectual Property Development Limited, priority 2014, dated 2020).
Some results were stated once for a whole list of compounds, not compound by compound.

Molecular target: T1, 6HIS-Tev-LRRK2 (1326-2527) (Homo sapiens, UniProt Q5S007)
T1 construct: A LRRK2 cDNA encoding residues 1326-2527 was received from Dundee University; made in house; host or cells: Spodoptera frugiperda Sf9 (baculovirus, pFB-HTb)
T1 sequence (Q5S007 1326-2527): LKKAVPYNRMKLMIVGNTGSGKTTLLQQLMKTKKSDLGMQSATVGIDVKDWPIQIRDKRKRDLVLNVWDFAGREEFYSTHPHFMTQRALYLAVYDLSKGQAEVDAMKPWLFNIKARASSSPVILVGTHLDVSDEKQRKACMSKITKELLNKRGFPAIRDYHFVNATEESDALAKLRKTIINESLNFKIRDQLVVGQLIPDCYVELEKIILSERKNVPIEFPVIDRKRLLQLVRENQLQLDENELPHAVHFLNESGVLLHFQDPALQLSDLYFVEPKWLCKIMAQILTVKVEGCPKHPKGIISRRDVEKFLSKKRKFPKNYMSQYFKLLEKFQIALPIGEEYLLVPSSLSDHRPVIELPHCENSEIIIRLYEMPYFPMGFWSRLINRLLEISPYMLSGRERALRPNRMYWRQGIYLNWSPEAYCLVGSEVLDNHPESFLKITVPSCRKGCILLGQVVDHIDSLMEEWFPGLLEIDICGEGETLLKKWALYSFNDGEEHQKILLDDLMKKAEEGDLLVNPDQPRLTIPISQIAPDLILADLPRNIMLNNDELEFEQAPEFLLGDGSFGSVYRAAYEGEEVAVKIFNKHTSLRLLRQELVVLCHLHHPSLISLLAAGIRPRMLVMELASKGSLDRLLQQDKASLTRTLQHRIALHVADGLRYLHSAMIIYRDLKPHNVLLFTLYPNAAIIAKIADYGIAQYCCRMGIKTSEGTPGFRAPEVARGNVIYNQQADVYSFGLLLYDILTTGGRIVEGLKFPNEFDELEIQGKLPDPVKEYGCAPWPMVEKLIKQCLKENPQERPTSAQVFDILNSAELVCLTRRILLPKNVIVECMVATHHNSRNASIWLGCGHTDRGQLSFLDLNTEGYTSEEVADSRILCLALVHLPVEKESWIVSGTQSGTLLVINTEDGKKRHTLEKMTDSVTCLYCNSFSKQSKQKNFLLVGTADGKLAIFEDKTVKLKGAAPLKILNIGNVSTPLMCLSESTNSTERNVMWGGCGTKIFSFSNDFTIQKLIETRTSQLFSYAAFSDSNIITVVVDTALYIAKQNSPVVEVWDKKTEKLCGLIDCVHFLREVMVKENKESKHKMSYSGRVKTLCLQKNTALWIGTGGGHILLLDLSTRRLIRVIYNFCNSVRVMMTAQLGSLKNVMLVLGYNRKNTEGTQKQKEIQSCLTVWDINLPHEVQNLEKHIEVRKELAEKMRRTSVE
Assay: Recombinant LRRK2 enzyme peptide substrate TR-FRET assay
Format: biochemical
Conditions: 60 nM LRRK2 enzyme; 10 uM ATP
Protocol: A LRRK2 cDNA encoding residues 1326-2527 was received from Dundee University (described in M. Jaleel et al., 2007, Biochem J, 405: 407-417). This gene fragment was subcloned into pFB-HTb (Invitrogen) using BamHI and NotI restriction sites. The LRRK2 plasmid was recombined into the baculovirus genome according to the BAC-to-BAC protocol described by Invitrogen. Transfection into Spodoptera frugiperda (Sf9) insect cells was performed using Cellfectin (Invitrogen), according to the manufacturer's protocol to generate P1 and P2 baculovirus stocks.
Sf9 cells were grown in HyClone SFX (Thermo Scientific) growth media at 27° C., 80 rpm in shake flask until of a sufficient volume to inoculate a bioreactor. The cells were grown in a 20 liter working volume Wave bioreactor (GE Healthcare) at 27° C., 50% dissolved oxygen and an agitation rate 22 rocks per minute, 10 degree rock angle, 200 ml/min air with a cell concentration of approximately 6×e6 cells/ml. The cells were infected with P2 Baculovirus at a multiplicity of infection (MOI) of 3. The cultivation was continued for a 48 hour expression phase. The infected cells were removed from the growth media by centrifugation at 2500 g using a Sorvall RC 3C Plus centrifuge at 2500 g for 20 minutes. The cell pellet was immediately frozen and subsequently supplied for purification.
A 260 g pellet was allowed to thaw in a water bath at 27° C. with 800 ml lysis buffer/buffer A (50 mm Tris-HCl pH 8.5, 300 mM NaCl, 1 mm DTT, 10% glycerol, 1 ml/L calbiochem complete protease inhibitor cocktail and benzonase (50 ul/800 ml)) before being dounce homogenised on ice using 20 strokes per 100 ml. The suspension was packed in ice and sonicated at 50% amplitude for 3 min 10 sec on/off using a ¾″ probe. The suspension was then centrifuged at 100,000 g for 90 min, at 4° C.
The lysate (700 ml) was decanted from the insoluble pellet and contacted for 3 h at 4 C with 10 ml His bind Ni NTA resin by end over end mixing. The resin was recovered by centrifugation, 3000 g, 5 min at 4 C, and packed in an XK16 column. The column was then washed with 10 column volumes buffer A, 10 column volumes buffer B (buffer A+1M NaCl) and 10 column volumes buffer C (buffer A+20 mM imidazole). The column was then eluted with 15 column volumes buffer D (buffer A+300 mM imidazole) collecting 2 ml fractions. All washes and elution were conducted at 4 ml/min.
Fractions identified by SDS-PAGE as containing protein of interest were pooled and loaded directly onto a 320 ml SEC Superdex 200 pg column that was pre-equilibrated with buffer E (50 mM Tris-HCl pH 8.5, 300 mM NaCl, 10% glycerol, 1 mM DTT). The column was loaded and eluted with 1.2 column volumes buffer E at 2 ml/min collecting 2 ml fractions. Fractions identified by SDS-PAGE as containing protein of interest were tested for activity.
Production of Biotin-Loner LRRKtide
The peptide (biotin-[…]-OH) was assembled at a […] scale using FMOC solid phase peptide synthesis on an ACT 357 MPS automated peptide synthesizer. The resulting crude peptide was cleaved from the resin using a 95:2.5:2.5 mix of trifluoroacetic acid: triisopropylsilane: water. The crude cleaved peptide was purified by reverse phase HPLC, eluting with a 5-35% gradient of 0.1% trifluoroacetic acid/acetonitrile in 0.1% trifluoroacetic acid/water.
Recombinant LRRK2 Enzyme Peptide Substrate TR-FRET Assay
This assay for LRRK2 inhibition is based on the detection of phosphorylation of the peptide ‘longer LRRKtide’ (biotin-[…]-OH) using a time resolved-fluorescence resonance energy transfer (TR-FRET) assay. It uses an antibody labelled europium chelate donor, W-1024 (Eu) and Streptavidin-Surelight APC acceptor (APC). When in close proximity, the excitation of Eu at 330 nm leads to energy transfer to APC with emission of light at 665 nm,
Assay Protocol • 1. A 10 mM test compound was dissolved in 100% DMSO and serially diluted 1 in 4. […]

| Compound | pIC50 in the recombinant LRRK2 enzyme peptide substrate TR-FRET assay |
| --- | --- |
| CCOc1nc(Nc2cn(CC(C)(C)O)nc2C)nc2[nH]ccc12 [Example E2, 1-(4-((4-ethoxy-7H-pyrrolo-[2,3-d]pyrimidin-2-yl)amino)-3-methyl-1H-pyrazol-1-yl)-2-methylpropan-2-ol] | ≥ 5.0 |
| CCOc1nc(Nc2cn(C3CCCOC3)nc2C)nc2[nH]ccc12 (single isomer, unassigned) [Example E32, 4-ethoxy-N-(3-methyl-1-(tetrahydro-2H-pyran-3-yl)-1H-pyrazol-4-yl)-7H-pyrrolo-[2,3-d]pyrimidin-2-amine] | ≥ 5.0 |
| Cc1nn(CC(C)(C)O)cc1Nc1nc(OCC2CC2)c2cn[nH]c2n1 [Example E25, 1-(4-((4-(cyclopropylmethoxy)-1H-pyrazolo-[3,4-d]-pyrimidin-6-yl)amino)-3-methyl-1H-pyrazol-1-yl)-2-methylpropan-2-ol] | ≥ 5.0 |
| CCOc1nc(Nc2cnn(CC3COC3)c2Cl)nc2[nH]ccc12 [Example E28, N-(5-chloro-1-(oxetan-3-yl-methyl)-1H-pyrazol-4-yl)-4-ethoxy-7H-pyrrolo-[2,3-d]pyrimidin-2-amine] | ≥ 5.0 |
| trans-2-(5-chloro-4-((4-ethoxy-7H-pyrrolo-[2,3-d]-pyrimidin-2-yl)amino)-1H-pyrazol-1-yl)-cyclopentanol [Example E37] | ≥ 5.0 |
| CCOc1nc(Nc2cnn(C3COC3)c2Cl)nc2[nH]ccc12 [Example E35, N-(5-chloro-1-(oxetan-3-yl)-1H-pyrazol-4-yl)-4-ethoxy-7H-pyrrolo-[2,3-d]pyrimidin-2-amine] | ≥ 5.0 |
| CCOc1nc(Nc2c(C)nn(C)c2C)nc2[nH]ccc12 [Example E6, 4-ethoxy-N-(1,3,5-trimethyl-1H-pyrazol-4-yl)-7H-pyrrolo-[2,3-d]-pyrimidin-2-amine] | ≥ 5.0 |
| CCOc1nc(Nc2cn(CCF)nc2C)nc2[nH]ccc12 [Example E27, 4-ethoxy-N-(1-(2-fluoroethyl)-3-methyl-1H-pyrazol-4-yl)-7H-pyrrolo-[2,3-d]-pyrimidin-2-amine] | ≥ 5.0 |
| CCOc1nc(Nc2cnn(CCF)c2C)nc2[nH]ccc12 [Example E26, 4-ethoxy-N-(1-(2-fluoroethyl)-5-methyl-1H-pyrazol-4-yl)-7H-pyrrolo-[2,3-d]-pyrimidin-2-amine] | ≥ 5.0 |
| CCOc1nc(Nc2cnn(C3CCCOC3)c2C)nc2[nH]ccc12 (single isomer, unassigned) [Example E30, 4-ethoxy-N-(5-methyl-1-(tetrahydro-2H-pyran-3-yl)-1H-pyrazol-4-yl)-7H-pyrrolo-[2,3-d]pyrimidin-2-amine] | ≥ 5.0 |
| CCOc1nc(Nc2cnn([C@@H]3CCN[C@@H](C(F)F)C3)c2C)nc2[nH]ccc12 [Example E94, N-(1-((2R,4R)-2-(difluoromethyl)piperidin-4-yl)-5-methyl-1H-pyrazol-4-yl)-4-ethoxy-7H-pyrrolo[2,3-d]pyrimidin-2-amine] | ≥ 5.0 |
| CCOc1nc(Nc2cnn([C@H]3CCN[C@@H](C(F)F)C3)c2C)nc2[nH]ccc12 [Example E95, N-(1-((2R,4S)-2-(difluoromethyl)piperidin-4-yl)-5-methyl-1H-pyrazol-4-yl)-4-ethoxy-7H-pyrrolo[2,3-d]pyrimidin-2-amine] | ≥ 5.0 |
| trans-2-(5-chloro-4-((4-ethoxy-7H-pyrrolo-[2,3-d]-pyrimidin-2-yl)amino)-1H-pyrazol-1-yl)cyclopentanol [Example E38] | ≥ 5.0 |
| CCOc1nc(Nc2cnn(C(C)(C)CN3CCOCC3)c2C)nc2[nH]ccc12 [Example E90, 4-ethoxy-N-(5-methyl-1-(2-methyl-1-morpholinopropan-2-yl)-1H-pyrazol-4-yl)-7H-pyrrolo[2,3-d]pyrimidin-2-amine] | ≥ 5.0 |
